Differences between knockout arms are mostly noise.
What was measured:
Test in all cases: relative cell number vs DMSO control (72 h) (% of DMSO); higher = less growth inhibition (more cells)
BT-20 = system: BT-20
Protocol: (§1)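 QMAP-Seq: a pool of 5 breast cancer cell lines (ZR-75-1, SKBR3, HCC-38, MDA-MB-231, BT-20), each carrying 12 doxycycline-inducible Cas9 sgRNA perturbations (11 knockouts plus non-targeting sgNT), was treated with compounds for 72 h at four 10-fold doses (10 nM-10 uM or 1 nM-1 uM range). Barcodes were amplified and sequenced, and cell number was interpolated from 293T spike-in standard curves. The result is expressed as % of the median of DMSO wells. Two biological replicates.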

SKBR3 = system: SKBR3
Protocol: as §1

ZR-75-1 = system: ZR-75-1
Protocol: as §1

COc1cc(/C=C/C(=O)CC(=O)/C=C/c2ccc(O)c(OC)c2)ccc1O [Curcumin]
relative cell number
Conditions	BT-20	SKBR3	ZR-75-1
sgRNA knockout: sgATF3, 10 nM	102	135	100
sgRNA knockout: sgATF3, 100 nM	113	103	95.1
sgRNA knockout: sgATF3, 1000 nM	106	86.5	79.8
sgRNA knockout: sgATF3, 10000 nM	93.1	98.8	88.58
sgRNA knockout: sgATF4, 10 nM	115.2	107	125
sgRNA knockout: sgATF4, 100 nM	116	111	124
sgRNA knockout: sgATF4, 1000 nM	94.7	95.5	127
sgRNA knockout: sgATF4, 10000 nM	82.9	76.4	121
sgRNA knockout: sgATF6, 10 nM	114	108	134
sgRNA knockout: sgATF6, 100 nM	107	108	147
sgRNA knockout: sgATF6, 1000 nM	113	95.9	88.9
sgRNA knockout: sgATF6, 10000 nM	88.8	74.4	103
sgRNA knockout: sgATG7, 10 nM	122	109	97.9
sgRNA knockout: sgATG7, 100 nM	93.1	96.6	115
sgRNA knockout: sgATG7, 1000 nM	101	106	123
sgRNA knockout: sgATG7, 10000 nM	110	72.3	79.6
sgRNA knockout: sgERN1, 10 nM	113	94.2	86.4
sgRNA knockout: sgERN1, 100 nM	98.7	107.59	113
sgRNA knockout: sgERN1, 1000 nM	106.7	119	116
sgRNA knockout: sgERN1, 10000 nM	79.3	91.4	103
sgRNA knockout: sgHSF1, 10 nM	99.81	102	–
sgRNA knockout: sgHSF1, 100 nM	104	95	–
sgRNA knockout: sgHSF1, 1000 nM	103	102	–
sgRNA knockout: sgHSF1, 10000 nM	97.9	77.3	–
sgRNA knockout: sgHSF2, 10 nM	104	114	108
sgRNA knockout: sgHSF2, 100 nM	91.7	105	98.6
sgRNA knockout: sgHSF2, 1000 nM	111	96.2	110
sgRNA knockout: sgHSF2, 10000 nM	84.9	74.5	76.4
sgRNA knockout: sgKEAP1, 10 nM	98.7	105	–
sgRNA knockout: sgKEAP1, 100 nM	93.3	115	–
sgRNA knockout: sgKEAP1, 1000 nM	103	95.9	–
sgRNA knockout: sgKEAP1, 10000 nM	85.6	70.5	–
sgRNA knockout: sgNFE2L2, 10 nM	130	99.9	90.7
sgRNA knockout: sgNFE2L2, 100 nM	115	104	90
sgRNA knockout: sgNFE2L2, 1000 nM	121	99.6	107
sgRNA knockout: sgNFE2L2, 10000 nM	113	88	75.3
sgRNA knockout: sgSLC35F2, 10 nM	108	97.8	92.2
sgRNA knockout: sgSLC35F2, 100 nM	91.1	94.5	97.6
sgRNA knockout: sgSLC35F2, 1000 nM	111	103	96.1
sgRNA knockout: sgSLC35F2, 10000 nM	91.2	81.4	113
sgRNA knockout: sgXBP1, 10 nM	118	126	87.1
sgRNA knockout: sgXBP1, 100 nM	107	118	108
sgRNA knockout: sgXBP1, 1000 nM	120	79.7	106
sgRNA knockout: sgXBP1, 10000 nM	85.9	87.5	81

CCOC(=O)CCNc1cc(N2CCc3ccccc3CC2)nc(-c2ccccn2)n1 [GSKJ4]
relative cell number
Conditions	BT-20	SKBR3	ZR-75-1
sgRNA knockout: sgATF3, 10 nM	98	98.8	105
sgRNA knockout: sgATF3, 100 nM	103	101	94.2
sgRNA knockout: sgATF3, 1000 nM	106	93.5	97.7
sgRNA knockout: sgATF3, 10000 nM	52.8	86.6	27.9
sgRNA knockout: sgATF4, 10 nM	102	94.1	145
sgRNA knockout: sgATF4, 100 nM	116	97.1	139
sgRNA knockout: sgATF4, 1000 nM	108	101	71.9
sgRNA knockout: sgATF4, 10000 nM	44.76	71.1	38.7
sgRNA knockout: sgATF6, 10 nM	93.9	74.2	70.8
sgRNA knockout: sgATF6, 100 nM	103	93.2	106
sgRNA knockout: sgATF6, 1000 nM	92.6	93.8	98.06
sgRNA knockout: sgATF6, 10000 nM	53.4	78.1	38.4
sgRNA knockout: sgATG7, 10 nM	84.4	107	96.3
sgRNA knockout: sgATG7, 100 nM	107	80	91.7
sgRNA knockout: sgATG7, 1000 nM	113	98.1	120
sgRNA knockout: sgATG7, 10000 nM	61.6	76.1	21.2
sgRNA knockout: sgERN1, 10 nM	97.6	109	104
sgRNA knockout: sgERN1, 100 nM	102	89.8	98.3
sgRNA knockout: sgERN1, 1000 nM	90.4	101	87.4
sgRNA knockout: sgERN1, 10000 nM	53.76	116	46.1
sgRNA knockout: sgHSF1, 10 nM	102	88.8	–
sgRNA knockout: sgHSF1, 100 nM	96.07	81.64	–
sgRNA knockout: sgHSF1, 1000 nM	95.5	84.5	–
sgRNA knockout: sgHSF1, 10000 nM	53.9	94	–
sgRNA knockout: sgHSF2, 10 nM	84.3	79.5	94.2
sgRNA knockout: sgHSF2, 100 nM	94.6	107	85.2
sgRNA knockout: sgHSF2, 1000 nM	107	110	118
sgRNA knockout: sgHSF2, 10000 nM	53.97	110	28.4
sgRNA knockout: sgKEAP1, 10 nM	101	88.5	–
sgRNA knockout: sgKEAP1, 100 nM	100	89.9	–
sgRNA knockout: sgKEAP1, 1000 nM	93.09	88.4	–
sgRNA knockout: sgKEAP1, 10000 nM	49.9	101	–
sgRNA knockout: sgNFE2L2, 10 nM	112	91.8	92.4
sgRNA knockout: sgNFE2L2, 100 nM	110	104	145.3
sgRNA knockout: sgNFE2L2, 1000 nM	101	85.7	95.2
sgRNA knockout: sgNFE2L2, 10000 nM	45.6	90.9	32.9
sgRNA knockout: sgSLC35F2, 10 nM	104	103.37	72.3
sgRNA knockout: sgSLC35F2, 100 nM	107	98.5	101
sgRNA knockout: sgSLC35F2, 1000 nM	102	102	110
sgRNA knockout: sgSLC35F2, 10000 nM	55.5	84.2	37.9
sgRNA knockout: sgXBP1, 10 nM	96.5	106	112
sgRNA knockout: sgXBP1, 100 nM	112	129	107
sgRNA knockout: sgXBP1, 1000 nM	102	92.2	118
sgRNA knockout: sgXBP1, 10000 nM	48.7	64.6	32.2

Source: the supplement of paper PMC7661543
